# Assay results from the supplement of paper PMC11732987, “Enantioselective OTUD7B fragment discovery through chemoproteomics screening and high-throughput optimisation” (Communications Chemistry, 2025).
# Protein sequences, listed by entry. Tags and fused reporters are not part of them. Lines headed by an entry give the natural chain unless they say otherwise; changes in a name come on top. Residues count along the entry.
# UniProt O15020, whole entry, looked up: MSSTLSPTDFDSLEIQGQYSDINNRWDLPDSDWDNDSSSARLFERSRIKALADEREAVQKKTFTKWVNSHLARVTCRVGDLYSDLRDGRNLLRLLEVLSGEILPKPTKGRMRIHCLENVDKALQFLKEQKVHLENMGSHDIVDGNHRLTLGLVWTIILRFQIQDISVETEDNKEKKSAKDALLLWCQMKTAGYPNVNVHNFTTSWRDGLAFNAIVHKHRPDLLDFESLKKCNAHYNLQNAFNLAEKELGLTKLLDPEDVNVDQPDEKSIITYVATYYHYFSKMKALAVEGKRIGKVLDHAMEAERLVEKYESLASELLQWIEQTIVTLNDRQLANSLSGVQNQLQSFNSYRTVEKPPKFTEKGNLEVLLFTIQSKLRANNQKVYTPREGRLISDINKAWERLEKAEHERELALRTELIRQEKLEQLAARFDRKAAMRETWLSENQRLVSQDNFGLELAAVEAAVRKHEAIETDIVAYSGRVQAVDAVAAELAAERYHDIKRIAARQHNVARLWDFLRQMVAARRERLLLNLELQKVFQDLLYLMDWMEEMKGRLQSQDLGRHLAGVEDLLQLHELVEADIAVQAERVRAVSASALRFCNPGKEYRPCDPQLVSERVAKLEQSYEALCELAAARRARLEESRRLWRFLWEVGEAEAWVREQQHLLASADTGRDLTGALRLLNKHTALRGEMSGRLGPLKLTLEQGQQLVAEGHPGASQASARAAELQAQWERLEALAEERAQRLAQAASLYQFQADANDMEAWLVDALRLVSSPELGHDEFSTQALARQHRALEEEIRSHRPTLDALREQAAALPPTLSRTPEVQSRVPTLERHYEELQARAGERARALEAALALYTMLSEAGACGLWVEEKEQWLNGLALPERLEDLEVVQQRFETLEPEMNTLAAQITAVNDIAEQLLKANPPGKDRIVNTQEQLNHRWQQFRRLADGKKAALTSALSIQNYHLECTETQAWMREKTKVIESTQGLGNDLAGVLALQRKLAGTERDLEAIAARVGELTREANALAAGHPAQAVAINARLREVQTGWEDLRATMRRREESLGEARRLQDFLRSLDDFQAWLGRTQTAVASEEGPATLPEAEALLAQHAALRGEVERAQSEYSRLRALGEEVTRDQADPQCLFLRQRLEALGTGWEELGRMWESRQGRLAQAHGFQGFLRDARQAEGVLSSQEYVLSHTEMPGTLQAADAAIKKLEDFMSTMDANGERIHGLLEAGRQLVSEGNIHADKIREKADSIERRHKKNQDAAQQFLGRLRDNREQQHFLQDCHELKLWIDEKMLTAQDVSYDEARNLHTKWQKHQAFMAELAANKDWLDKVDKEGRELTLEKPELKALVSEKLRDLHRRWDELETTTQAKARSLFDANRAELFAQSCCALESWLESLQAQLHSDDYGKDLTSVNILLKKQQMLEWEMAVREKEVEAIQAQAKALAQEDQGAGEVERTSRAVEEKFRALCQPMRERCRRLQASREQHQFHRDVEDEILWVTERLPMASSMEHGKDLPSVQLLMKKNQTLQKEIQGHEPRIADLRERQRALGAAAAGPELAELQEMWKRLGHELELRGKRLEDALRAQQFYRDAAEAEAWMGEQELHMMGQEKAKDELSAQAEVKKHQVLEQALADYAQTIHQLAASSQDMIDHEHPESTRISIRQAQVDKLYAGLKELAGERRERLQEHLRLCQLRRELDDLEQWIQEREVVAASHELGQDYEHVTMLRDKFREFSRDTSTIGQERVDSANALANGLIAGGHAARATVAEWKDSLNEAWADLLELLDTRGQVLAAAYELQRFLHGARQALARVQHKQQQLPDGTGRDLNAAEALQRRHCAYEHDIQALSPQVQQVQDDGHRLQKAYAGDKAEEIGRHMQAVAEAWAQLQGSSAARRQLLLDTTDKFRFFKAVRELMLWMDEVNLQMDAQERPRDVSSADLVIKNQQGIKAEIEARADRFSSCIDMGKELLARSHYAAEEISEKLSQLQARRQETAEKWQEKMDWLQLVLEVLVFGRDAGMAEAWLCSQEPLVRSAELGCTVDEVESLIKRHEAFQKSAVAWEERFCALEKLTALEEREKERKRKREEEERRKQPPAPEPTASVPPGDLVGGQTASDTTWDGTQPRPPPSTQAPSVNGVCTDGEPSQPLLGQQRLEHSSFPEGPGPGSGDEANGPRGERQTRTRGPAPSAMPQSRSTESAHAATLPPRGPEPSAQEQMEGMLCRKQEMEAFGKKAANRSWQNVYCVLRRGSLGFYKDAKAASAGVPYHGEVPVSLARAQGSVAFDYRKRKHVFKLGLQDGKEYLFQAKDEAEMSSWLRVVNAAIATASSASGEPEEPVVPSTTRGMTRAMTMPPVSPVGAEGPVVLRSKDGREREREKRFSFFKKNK
# UniProt P56962: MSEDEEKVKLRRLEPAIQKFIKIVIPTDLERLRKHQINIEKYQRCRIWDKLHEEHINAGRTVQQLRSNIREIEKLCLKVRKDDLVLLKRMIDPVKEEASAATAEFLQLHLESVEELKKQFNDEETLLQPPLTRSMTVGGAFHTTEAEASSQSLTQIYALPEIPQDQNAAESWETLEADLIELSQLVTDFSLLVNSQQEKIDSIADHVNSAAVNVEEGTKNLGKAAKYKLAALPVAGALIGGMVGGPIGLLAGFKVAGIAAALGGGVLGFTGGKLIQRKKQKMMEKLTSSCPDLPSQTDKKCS
# UniProt P49458: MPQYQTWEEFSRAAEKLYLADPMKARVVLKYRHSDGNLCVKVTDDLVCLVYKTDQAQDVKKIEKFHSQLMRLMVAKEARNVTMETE
# UniProt O00186: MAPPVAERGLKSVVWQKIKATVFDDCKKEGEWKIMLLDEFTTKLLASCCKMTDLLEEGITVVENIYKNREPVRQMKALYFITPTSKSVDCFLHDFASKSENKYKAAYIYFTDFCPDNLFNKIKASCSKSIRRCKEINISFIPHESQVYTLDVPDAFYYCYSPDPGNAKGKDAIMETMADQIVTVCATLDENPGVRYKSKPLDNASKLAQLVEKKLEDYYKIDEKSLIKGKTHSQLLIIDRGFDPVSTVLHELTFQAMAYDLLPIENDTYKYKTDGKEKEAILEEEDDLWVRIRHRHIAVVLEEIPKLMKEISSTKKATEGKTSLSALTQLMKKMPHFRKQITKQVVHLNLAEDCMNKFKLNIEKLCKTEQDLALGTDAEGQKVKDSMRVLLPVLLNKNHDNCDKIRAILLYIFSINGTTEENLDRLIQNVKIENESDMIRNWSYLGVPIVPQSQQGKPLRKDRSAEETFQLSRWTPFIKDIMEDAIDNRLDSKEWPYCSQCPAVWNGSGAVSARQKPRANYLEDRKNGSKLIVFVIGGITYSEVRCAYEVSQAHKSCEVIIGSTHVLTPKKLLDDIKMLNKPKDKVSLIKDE
# UniProt Q9HBM1: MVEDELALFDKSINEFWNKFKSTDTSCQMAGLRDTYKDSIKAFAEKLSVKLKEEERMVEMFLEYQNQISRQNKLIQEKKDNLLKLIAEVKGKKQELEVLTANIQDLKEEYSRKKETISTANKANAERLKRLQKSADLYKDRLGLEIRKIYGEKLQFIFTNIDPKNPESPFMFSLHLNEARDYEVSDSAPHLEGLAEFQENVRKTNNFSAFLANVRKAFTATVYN
# UniProt O76094: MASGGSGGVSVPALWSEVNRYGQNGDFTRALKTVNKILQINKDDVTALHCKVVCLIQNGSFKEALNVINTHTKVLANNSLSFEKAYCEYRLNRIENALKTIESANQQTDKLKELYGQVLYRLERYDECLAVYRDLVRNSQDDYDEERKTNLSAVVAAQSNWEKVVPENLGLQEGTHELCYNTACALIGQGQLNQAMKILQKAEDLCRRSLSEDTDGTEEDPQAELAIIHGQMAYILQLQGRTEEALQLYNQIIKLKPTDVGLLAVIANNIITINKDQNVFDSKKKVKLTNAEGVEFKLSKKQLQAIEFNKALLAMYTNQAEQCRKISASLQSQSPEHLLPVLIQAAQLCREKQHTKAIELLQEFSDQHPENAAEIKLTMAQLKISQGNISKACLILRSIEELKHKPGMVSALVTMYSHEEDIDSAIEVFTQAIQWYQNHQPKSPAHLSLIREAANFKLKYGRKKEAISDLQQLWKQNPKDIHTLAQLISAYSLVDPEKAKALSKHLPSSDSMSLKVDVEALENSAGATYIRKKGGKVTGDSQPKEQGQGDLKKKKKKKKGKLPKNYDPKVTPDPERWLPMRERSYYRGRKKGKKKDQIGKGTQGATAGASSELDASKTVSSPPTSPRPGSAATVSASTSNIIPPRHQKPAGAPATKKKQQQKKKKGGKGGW
# UniProt Q9UHB9: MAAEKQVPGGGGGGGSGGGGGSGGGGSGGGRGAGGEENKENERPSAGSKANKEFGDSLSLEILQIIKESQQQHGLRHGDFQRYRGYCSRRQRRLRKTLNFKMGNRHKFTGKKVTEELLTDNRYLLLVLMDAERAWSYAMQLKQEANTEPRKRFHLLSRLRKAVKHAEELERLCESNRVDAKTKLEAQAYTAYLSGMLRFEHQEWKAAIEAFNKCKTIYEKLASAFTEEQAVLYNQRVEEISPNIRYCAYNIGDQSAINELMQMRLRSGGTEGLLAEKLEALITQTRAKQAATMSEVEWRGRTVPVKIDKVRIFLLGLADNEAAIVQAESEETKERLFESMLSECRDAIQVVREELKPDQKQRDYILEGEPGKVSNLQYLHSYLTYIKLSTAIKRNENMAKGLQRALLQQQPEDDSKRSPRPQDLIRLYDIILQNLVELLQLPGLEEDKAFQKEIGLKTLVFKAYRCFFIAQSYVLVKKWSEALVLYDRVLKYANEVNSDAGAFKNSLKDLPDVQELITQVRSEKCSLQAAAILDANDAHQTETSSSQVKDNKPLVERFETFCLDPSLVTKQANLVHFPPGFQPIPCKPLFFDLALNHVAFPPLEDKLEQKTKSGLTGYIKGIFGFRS
# UniProt Q76I76, 793-818: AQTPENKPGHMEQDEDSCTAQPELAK
# UniProt Q9Y2Z0: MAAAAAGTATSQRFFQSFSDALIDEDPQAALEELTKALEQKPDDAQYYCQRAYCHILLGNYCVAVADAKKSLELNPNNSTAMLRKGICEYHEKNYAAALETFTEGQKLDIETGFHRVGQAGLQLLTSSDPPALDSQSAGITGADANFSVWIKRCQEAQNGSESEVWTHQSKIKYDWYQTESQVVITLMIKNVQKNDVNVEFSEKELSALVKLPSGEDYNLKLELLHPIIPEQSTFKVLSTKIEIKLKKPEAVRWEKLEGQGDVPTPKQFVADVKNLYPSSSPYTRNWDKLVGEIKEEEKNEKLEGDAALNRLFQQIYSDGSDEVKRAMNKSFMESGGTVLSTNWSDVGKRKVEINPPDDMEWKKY
# UniProt Q9NUL3: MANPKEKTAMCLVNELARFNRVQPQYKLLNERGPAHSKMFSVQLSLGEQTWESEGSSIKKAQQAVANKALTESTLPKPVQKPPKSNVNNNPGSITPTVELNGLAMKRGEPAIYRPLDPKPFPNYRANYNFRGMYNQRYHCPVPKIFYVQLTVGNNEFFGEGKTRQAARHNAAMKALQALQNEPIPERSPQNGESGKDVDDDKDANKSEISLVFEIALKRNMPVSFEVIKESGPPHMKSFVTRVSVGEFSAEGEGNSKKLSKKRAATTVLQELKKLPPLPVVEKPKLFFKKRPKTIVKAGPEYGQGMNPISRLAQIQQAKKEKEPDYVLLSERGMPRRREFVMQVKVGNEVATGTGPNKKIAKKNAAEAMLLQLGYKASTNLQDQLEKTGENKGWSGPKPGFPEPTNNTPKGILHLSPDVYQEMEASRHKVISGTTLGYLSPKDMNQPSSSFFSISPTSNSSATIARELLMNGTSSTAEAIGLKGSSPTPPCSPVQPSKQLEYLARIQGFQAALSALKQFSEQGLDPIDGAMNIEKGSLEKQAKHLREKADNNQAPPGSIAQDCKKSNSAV
# UniProt O75177: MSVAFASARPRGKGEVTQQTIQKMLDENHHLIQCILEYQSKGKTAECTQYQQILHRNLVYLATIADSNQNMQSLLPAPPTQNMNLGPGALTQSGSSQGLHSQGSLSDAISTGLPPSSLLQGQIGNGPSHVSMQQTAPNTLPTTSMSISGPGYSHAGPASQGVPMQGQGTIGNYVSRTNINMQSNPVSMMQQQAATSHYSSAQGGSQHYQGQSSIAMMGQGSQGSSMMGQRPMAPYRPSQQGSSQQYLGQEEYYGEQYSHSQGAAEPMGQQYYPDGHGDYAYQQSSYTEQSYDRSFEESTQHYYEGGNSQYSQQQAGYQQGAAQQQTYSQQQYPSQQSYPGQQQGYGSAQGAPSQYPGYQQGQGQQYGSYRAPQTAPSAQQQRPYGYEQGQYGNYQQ
# UniProt O14662: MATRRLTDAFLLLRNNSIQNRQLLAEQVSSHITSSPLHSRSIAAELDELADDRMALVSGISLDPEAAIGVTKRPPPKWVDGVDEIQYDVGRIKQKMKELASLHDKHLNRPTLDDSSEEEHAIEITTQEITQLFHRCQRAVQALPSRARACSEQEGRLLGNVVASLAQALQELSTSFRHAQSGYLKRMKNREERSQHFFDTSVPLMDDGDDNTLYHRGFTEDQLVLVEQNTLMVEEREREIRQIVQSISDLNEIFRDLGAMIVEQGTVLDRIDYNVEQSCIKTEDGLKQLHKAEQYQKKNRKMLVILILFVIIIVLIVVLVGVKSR
# The list shows a part of the results. The data scatter; read single values as rough.
# Compound: ClCC(=O)N[C@@H]1CCCc2ccccc12
# Assay: log2 mean competition ratio of IA-DTB cysteine labelling (DMSO/compound) (log2 ratio); higher = stronger cysteine engagement by compound
# Details: 50 µM; treatment time: 4 h; cell line lysate: HEK293T
# Method: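 IA-DTB competitive cysteine chemoproteomics in HEK293T RIPA lysate. Lysates were treated with compound 29 or 30 at 50 or 200 µM for 4 h, then IA-DTB (500 µM, 1 h), trypsin-digested, NeutrAvidin-enriched and analysed by diaPASEF. Competition ratio = intensity DMSO / intensity compound (n=4 treated, n=64 DMSO); binding: mean log2 CR ≥ 1 and p ≤ 0.05 plus QC filters. Target is the cysteine site.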
row,Target,log2 mean competition ratio
1,SPTBN2 C1474 (UniProt O15020),0.205
2,STX17 C290 (UniProt P56962),-0.181
3,SYNE2 C553 (UniProt Q8WXH0),0.00315
4,SRP9 C39 (UniProt P49458),0.0185
5,STXBP3 C546 (UniProt O00186),0.399
6,SPG21 C204 (UniProt Q9NZD8),0.16
7,SYNE2 C4911 (UniProt Q8WXH0),-0.192
8,STXBP3 C26 (UniProt O00186),-0.0373
9,STXBP4 C544 (UniProt Q6ZWJ1),-0.109
10,SPC25 C27 (UniProt Q9HBM1),0.209
11,SRP72 C50 (UniProt O76094),-0.0299
12,SRP68 C562 (UniProt Q9UHB9),-0.136
13,SYNE2 C2520 (UniProt Q8WXH0),0.181
14,SSH2 C810 (UniProt Q76I76),-0.164
15,SUGT1 C49 (UniProt Q9Y2Z0),-0.062
16,SRA1 C122 (UniProt Q9HD15),0.00214
17,STAU2 C491 (UniProt Q9NUL3),0.2
18,SS18L1 C47 (UniProt O75177),0.271
19,SUGT1 C154 (UniProt Q9Y2Z0),-0.0517
20,STX16 C150 (UniProt O14662),-0.118

# Same assay, conditions: 200 µM; treatment time: 4 h; cell line lysate: HEK293T
row,Target,log2 mean competition ratio
1,SPTBN2 C1474 (UniProt O15020),0.0796
2,STX17 C290 (UniProt P56962),0.111
3,SYNE2 C553 (UniProt Q8WXH0),0.0836
4,SRP9 C39 (UniProt P49458),-0.155
5,STXBP3 C546 (UniProt O00186),-0.132
6,SPG21 C204 (UniProt Q9NZD8),-0.321
7,SYNE2 C4911 (UniProt Q8WXH0),-0.0429
8,STXBP3 C26 (UniProt O00186),-0.0135
9,STXBP4 C544 (UniProt Q6ZWJ1),-0.283
10,SPC25 C27 (UniProt Q9HBM1),0.0781
11,SRP72 C50 (UniProt O76094),0.147
12,SRP68 C562 (UniProt Q9UHB9),-0.129
13,SYNE2 C2520 (UniProt Q8WXH0),0.232
14,SSH2 C810 (UniProt Q76I76),-0.049
15,SUGT1 C49 (UniProt Q9Y2Z0),-0.129
16,SRA1 C122 (UniProt Q9HD15),0.088
17,STAU2 C491 (UniProt Q9NUL3),-0.17
18,SS18L1 C47 (UniProt O75177),0.217
19,SUGT1 C154 (UniProt Q9Y2Z0),-0.0395
20,STX16 C150 (UniProt O14662),0.207
